The source of these data is patent US20100113390A1, “OLIGOSACCHARIDES DERIVED FROM FUCOIDAN” (SUNTORY HOLDINGS LIMITED, priority 2007, published 2010).

A short description of the data set: Evaluation of quality of taste (sensory test by 4 panelists). As to conditions: 5% aqueous solution, ordinary temperature.

Regarding `CC1OC(O)C(OC2OC(C(=O)O)C(O)C(O)C2O)C(O)C1O` [GF (I), α-D-GlcA-(1→2)-L-Fuc], the “Quality of taste, summary of sensory test” value is recorded as “colorless solution serving as a refreshing acidifier with a slight sweetness”. Further, the “Sensory test comment, panel A” value (panelist A, free comment) is “Refreshing”. Besides, where the note is “panelist B, free comment”, the “Sensory test comment, panel B” value is listed as “Pleasant”. In addition, the “Sensory test comment, panel C” value (panelist C, free comment) is recorded as “Sour”.
